Assay results from paper PMC12705663.
Results are given in words; binding and its absence hold for the method and conditions named. In cells and extracts the contact can be indirect. Here binding means that the protein was enriched with, or labelled near, the bait; the list need not be complete.

Protein sequences, listed by entry. Tags and fused reporters are not part of them. Residues count along the entry.
UniProt P22607, residues 23-806: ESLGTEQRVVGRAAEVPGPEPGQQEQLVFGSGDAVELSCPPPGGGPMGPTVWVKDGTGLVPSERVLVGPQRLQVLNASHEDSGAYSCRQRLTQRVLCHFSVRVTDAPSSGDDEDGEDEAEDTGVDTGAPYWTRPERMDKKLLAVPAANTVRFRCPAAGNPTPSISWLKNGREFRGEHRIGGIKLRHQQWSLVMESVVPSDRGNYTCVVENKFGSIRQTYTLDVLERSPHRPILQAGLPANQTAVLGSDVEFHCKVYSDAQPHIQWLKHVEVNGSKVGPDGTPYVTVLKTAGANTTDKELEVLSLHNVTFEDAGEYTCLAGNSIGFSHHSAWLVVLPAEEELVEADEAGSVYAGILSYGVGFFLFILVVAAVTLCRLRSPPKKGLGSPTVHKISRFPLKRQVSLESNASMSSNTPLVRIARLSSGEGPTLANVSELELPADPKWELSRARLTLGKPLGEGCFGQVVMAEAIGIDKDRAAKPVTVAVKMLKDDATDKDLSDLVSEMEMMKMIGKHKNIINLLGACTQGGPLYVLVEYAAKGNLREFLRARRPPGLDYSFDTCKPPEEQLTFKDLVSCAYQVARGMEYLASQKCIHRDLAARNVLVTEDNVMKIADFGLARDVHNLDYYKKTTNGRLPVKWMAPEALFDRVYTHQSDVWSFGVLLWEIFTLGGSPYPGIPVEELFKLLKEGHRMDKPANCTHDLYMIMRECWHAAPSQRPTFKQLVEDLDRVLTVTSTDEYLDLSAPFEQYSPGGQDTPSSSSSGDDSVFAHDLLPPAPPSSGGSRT
UniProt P21802, residues 22-821: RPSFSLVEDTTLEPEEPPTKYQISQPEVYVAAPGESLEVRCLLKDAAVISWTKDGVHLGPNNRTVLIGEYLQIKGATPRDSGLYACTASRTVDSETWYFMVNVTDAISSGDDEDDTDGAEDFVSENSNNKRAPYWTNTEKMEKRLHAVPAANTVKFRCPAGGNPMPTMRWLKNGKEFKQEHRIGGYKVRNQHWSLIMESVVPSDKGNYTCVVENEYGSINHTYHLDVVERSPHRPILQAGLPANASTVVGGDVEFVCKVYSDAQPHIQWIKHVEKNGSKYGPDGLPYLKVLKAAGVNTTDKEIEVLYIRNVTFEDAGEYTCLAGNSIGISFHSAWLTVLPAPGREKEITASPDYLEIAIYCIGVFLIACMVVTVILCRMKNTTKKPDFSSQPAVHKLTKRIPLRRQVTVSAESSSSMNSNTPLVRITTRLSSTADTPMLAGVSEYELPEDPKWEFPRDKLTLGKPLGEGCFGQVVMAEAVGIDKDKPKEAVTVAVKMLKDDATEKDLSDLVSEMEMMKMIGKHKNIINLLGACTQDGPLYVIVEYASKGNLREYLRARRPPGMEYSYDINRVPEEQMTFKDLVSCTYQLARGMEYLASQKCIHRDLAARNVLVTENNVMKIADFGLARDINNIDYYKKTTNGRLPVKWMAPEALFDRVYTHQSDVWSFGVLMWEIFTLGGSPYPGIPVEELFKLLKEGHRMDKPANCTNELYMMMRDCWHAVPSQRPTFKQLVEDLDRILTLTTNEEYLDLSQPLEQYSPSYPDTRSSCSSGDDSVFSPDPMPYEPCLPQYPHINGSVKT

B1: fibroblast receptor substrate 2 (protein, UniProt Q8WU20 1-508)
chain: MGSCCSCPDKDTVPDNHRNKFKVINVDDDGNELGSGIMELTDTELILYTRKRDSVKWHYLCLRRYGYDSNLFSFESGRRCQTGQGIFAFKCARAEELFNMLQEIMQNNSINVVEEPVVERNNHQTELEVPRTPRTPTTPGFAAQNLPNGYPRYPSFGDASSHPSSRHPSVGSARLPSVGEESTHPLLVAEEQVHTYVNTTGVQEERKNRTSVHVPLEARVSNAESSTPKEEPSSIEDRDPQILLEPEGVKFVLGPTPVQKQLMEKEKLEQLGRDQVSGSGANNTEWDTGYDSDERRDAPSVNKLVYENINGLSIPSASGVRRGRLTSTSTSDTQNINNSAQRRTALLNYENLPSLPPVWEARKLSRDEDDNLGPKTPSLNGYHNNLDPMHNYVNTENVTVPASAHKIEYSRRRDCTPTVFNFDIRRPSLEHRQLNYIQVDLEGGSDSDNPQTPKTPTTPLPQTPTRRTELYAVIDIERTAAMSNLQKALPRDDGTSRKTRHNSTDLPM

molecular target: FGFR1 WT-BirA*-Flag (human) (UniProt P11362); assay: proximity labelling; BioID-MS: FGFR1-BirA*-Flag baits in Flp-In T-REx HEK293 cells, tetracycline and 50 uM biotin; biotinylated preys isolated by streptavidin pull-down and identified by MS; SAINTexpress AvgP >= 0.95, AvgSpec >= 5

binding, binds:
protein tyrosine phosphatase non-receptor type 11 (from UniProt Q06124 1-593) (enzyme), FGFR3 (from UniProt P22607 23-806) (receptor), FGFR2 (from UniProt P21802 22-821) (receptor), B1
